Measured values from paper PMC8000447, “Assessment of Finite and Infinite Dose In Vitro Experiments in Transdermal Drug Delivery” (Pharmaceutics, 2021).

Experiments:
[1] = Kinetic permeation assay with infinite dosage using vertical Franz diffusion cells; assay type: in vitro ADME, pig; settings: infinite dose 300 µL in propylene glycol (DS 3%, IBU 1%, LIDO 2%, CAF 1% w/v), mean ± SD
Experimental: (§1) A porcine skin membrane was employed for both the permeation and penetration assays. […] The skin was provided by the Department of Cardiology of the Hospital Clinic (Barcelona, Spain). Dorsal unboiled skin (female white/landrace pigs) was prepared: the bristles were removed (A5 Clipper 78005-500, Oster professional, McMinnville, OR, USA) and dermatomed (Dermatome GA630, Aesculap, Tuttlingen, Germany) at 500 ± 50 μm thick. Thickness was verified with a digital micrometer 40EX (Mahr, Göttingen, Germany). Skin biopsies were cut into discs with 2.5 cm diameter. The skin discs were stored until the experiment (at −20 °C).
The kinetic diffusion assay was conducted using a Vision Microette (Vision G2 V14.1) with an Autosampler and an Autofill Collector (Hanson Research, Chatworths, CA, USA) automated vertical diffusion cell (7 mL acceptor chamber, and surface area of application of 1.77 cm^2).
The receptor fluid (RF) used was aqueous buffer solution of PBS in the case of DS, IBU, and CAF, and NaH2PO4 (0.05 M, pH = 7) in the case of LIDO. Receptor fluid was continuously stirred with magnetic beads at 700 rpm to keep the contents of the receptor chamber homogenous. The system was thermostatted at 43 ± 1 °C to provide a skin surface temperature of 32 ± 1 °C.
Once TEWL was measured, 300 μL (infinite dose) of the four active solutions was applied in triplicate to each Franz cell (Hanson Research, Chatworths, CA, USA) and donor compartment was sealed to donor chamber to avoid evaporation. […] The content of receptor samples was diluted in 2 mL graduated flasks and filtered with a 0.45 µm nylon filter (Cameo, Sigma-Aldrich, St Louis, MO, USA) previous analyzed with a high-performance liquid chromatography-diode array detector (HPLC-DAD) (Section […]). The kinetics of penetration were determined, simulating the drug elimination in the body.
The cumulative amount of the active pharmaceutical ingredient (API) per surface area (Qn, µg/cm^2) was obtained for each replicate cell to calculate the release of the four APIs. The equation used to determine the cumulative amount of API in the receptor fluid was the following Equation (1):(1) Qn= Cn×Vc+ ∑i=1n−1Ci×Vs/A where Qn is the cumulative amount of API released at time n (μg/cm^2); Cn is the concentration of active ingredient in the sample (μg/mL); Vc is the volume of the vertical diffusion cell; ∑i=1n−1 Ci is the sum of the concentrations of API (µg/mL) determined at sampling intervals 1 through n − 1; Vs is the sample volume and A is the surface area of the sample.
The percentage of cumulative amount of API permeated over time was calculated by the following Equation (2):(2) % Release API= Qn/Total amount of API applied×100 […]

[2] = Penetration assay with finite dosage using vertical Franz diffusion cells; assay type: in vitro ADME, pig; settings: finite dose 20 µL in propylene glycol, 24 h, normalized amount, mean ± SD, n = 3
Experimental: as §1
OECD guidelines and the published opinions of the Scientific Committee on Cosmetic Products and Non-Food Products (SCCS) were adhered in the penetration protocol. The excised pig skin was placed in a static Franz diffusion cell (Lara Spiral, Couternon, France) (1.86 cm^2 and 3 mL) with the dermis side facing the acceptor chamber. The receptor chamber was filled with receptor fluid. The receptor fluid was the same used in the kinetic assay (Section 2.4). Air bubbles entrapped below the skin were carefully removed and the assembled cells were deposited in a temperature-regulated water bath (Telesystem HP 15, H+P Labortechnik GmgH, Oberschleissheim, Germany) on top of a water-resistant magnetic stirring plate (Variomag 15 and Telemodul, H+P Labortechnik GmgH, Oberschleissheim, Germany). The homogeneity of receptor fluid was maintained by continuously stirring at 700 rpm. The system was thermostatted at 43 ± 1 °C to provide a skin surface temperature of 32 ± 1 °C.
The integrity and permeability of membranes were evaluated with the trans-epidermal water loss (TEWL) value as detailed in Section 2.3.
The finite assay protocol was conducted as described in previous studies. Briefly, 20 µL of each API solution was applied to the skin surface in the donor chamber (n = 3). According to the OECD methodology used, penetration studies were performed for 24 h. After the exposure time, the receptor fluid of all the membranes was collected to transfer to a 5 mL volumetric flask. The remaining API solution was removed from skin surface with specific washing procedure (W). Stratum corneum layers were obtained by tape stripping protocol with adhesive tape (D-Squame, Cuderm Corporation, Dallas, TX, USA) applied under controlled pressure (80 g/cm^2). Viable epidermis (E) and the dermis (D) were separated after heating the skin at 80 °C for several seconds. All samples were extracted with adequate solvent (Table 1) and filtered with a 0.45 µm Nylon filter (Cameo, Sigma-Aldrich, St. Louis, MO, USA) before HPLC quantification (Section 2.6).
The amount permeated in the skin was considered the sum of that in the epidermis, dermis, and receptor fluid. […]

**Q.** With `CCN(CC)CC(=O)Nc1c(C)cccc1C` [Lidocaine, lidocaine] as the compound, how does the AUC ([1]; female, white/landrace, pig, receptor fluid, read-out: AUC (area under the curve)) read?
**A.** 109 ± 35.1 µg·h/mL

**Q.** What about the Cmax ([1]; female, white/landrace, pig, receptor fluid, read-out: Cmax (maximum concentration)) of the same compound?
**A.** 50 ± 11.5 µg/mL

**Q.** And the “J (flux)” value ([1]; n = 3)?
**A.** 2.29 ± 0.30 µg/cm^2/h

**Q.** And the “AUC (%)” value ([1]; percentage release)?
**A.** 14.95 ± 6.09%

**Q.** And the “% API detected in dermis (D)” value [2]?
**A.** 2.60 ± 0.40%

**Q.** And the “% API detected in epidermis (E)” value [2]?
**A.** 2.92 ± 2.69%

**Q.** What about the “% API detected in receptor fluid (RF)” value [2] of the same compound?
**A.** 54.73 ± 7.48%

**Q.** And the “% API detected in stratum corneum (SC)” value [2]?
**A.** 4.77 ± 0.70%
